Results from US20030158113A1 (University of Washington, published 2003).

Biological target: T1, protein A-colloidal gold complex (UniProt P38507 37-477, colloidal gold conjugate)
T1 construct: Detection reagent, used alone as a control; also called protein A-gold complex
Test: post-embedding immunogold labeling of BASMC culture sections, TEM

B1: Rat osteopontin purified from the conditioned medium of rat neonatal smooth muscle cell cultures (other, UniProt P08721 17-317, looked up)
chain: LPVKVAEFGSSEEKAHYSKHSDAVATWLKPDPSQKQNLLAPQNSVSSEETDDFKQETLPSNSNESHDHMDDDDDDDDDGDHAESEDSVNSDESDESHHSDESDESFTASTQADVLTPIAPTVDVPDGRGDSLAYGLRSKSRSFPVSDEQYPDATDEDLTSRMKSQESDEAIKVIPVAQRLSVPSDQDSNGKTSHESSQLDEPSVETHSLEQSKEYKQRASHESTEQSDAIDSAEKPDAIDSAERSDAIDSQASSKASLEHQSHEFHSHEDKLVLDPKSKEDDRYLKFRISHELESSSSEVN
notes: mature; Native secreted, post-translationally modified protein; also called OPN
B1: no binding.
